In article PMC6894338:
These are yes or no findings as the source states them, for the method shown. In cells and extracts the contact can be indirect. Some binding calls cover weakened binding; strength is not graded here.

Molecular target: Zygote arrest 1 (ZAR1), as used in the co-immunoprecipitation (human) (UniProt Q86SH2)
Assay: co-IP; co-immunoprecipitation of ZAR1 with ZAR1, with and without the zinc-finger; tags, cells and conditions not shown (Figure S9e)

binding: binds
B1: Zygote arrest 1 (ZAR1), as used in the co-immunoprecipitation (protein, UniProt Q86SH2 1-424)
chain: MAALGDEVLDGYVFPACPPCSYRYPYPAATKGKGAAGGSWQQRGRGCLPASSPCSAGAASLSFPGCGRLTAAEYFDSYQRERLMALLAQVGPGLGPRARRAGSCDVAVQVSPRIDAAVQCSLGRRTLQRRARDPESPAGPGAEGTTGGGSFSQQPSRRGLEQGSPQNGAPRPMRFPRTVAVYSPLALRRLTAFLEGPGPAAGEQRSGASDGERGPPPARLQGPEEGEVWTKKAPRRPQSDDDGEAQAAVRASWEQPADGPELPPREAQEGEAAPRSALRSPGQPPSAGRARDGGDGREAAVAGEGPSPRSPELGKERLRFQFLEQKYGYYHCKDCNIRWESAYVWCVQGTNKVYFKQFCRTCQKSYNPYRVEDITCQSCKQTRCSCPVKLRHVDPKRPHRQDLCGRCKGKRLSCDSTFSFKYII
